Measured values reported in patent EP3623009A1, “MODULATION OF TRF1 FOR BRAIN CANCER TREATMENT” (Fundación del Sector Público Estatal Centro Nacional de …, priority 2018, dated 2020).
For some assays here: At least one compound was matched to its structure with a doubt left. Some entries share one result that the patent states for a list of compounds.

Tests used:
[1] = test system: TRF1; assay: TRF1 immunofluorescence (TRF1 foci) in U251 cells; assay type: cell-based, human; conditions: 10 µM for 24 h or 48 hr
[2] = test system: TRF1; assay: Western blot of total TRF1 protein levels in U251 cells; assay type: cell-based, human; conditions: 10 µM for 24 h or 48 hr
[3] = test system: TRF1; assay: Screening of ETP-antitumoral library for TRF1 levels in CHA-9.3 cells (Opera High Content Screening, confocal validation); assay type: cell-based, mouse; conditions: 1 µM; for hits confirmed by confocal microscopy: TRF1 binding to telomeres; for inhibition of TRF1 protein levels (screening hit): CHA-9.3 mouse lung cancer cell line, 24 h, preliminary results
[4] = test system: TRF1; assay: Western blot of TRF1 protein levels in h676 GSCs; assay type: cell-based, human; conditions: 24h at 1 µM, three groups
[5] = test system: h676 GSCs; assay: Drug combination (synergy) sphere study in h676 GSCs; assay type: cell-based, human; conditions: combinatorial matrix, spheres after 7 days, combination index
Protocol: Using this concentration as a reference point, the present inventors designed a combinatorial matrix using different concentrations of the compounds (e.g. 2x GI50, GI50 and ½ GI50) to study all the possible combinations. Combination index is calculated to establish if the combination is synergistic, additive or antagonistic (Fig. 50A).

[6] = test system: p-AKT; assay: p-AKT activation (p-AKT/AKT ratio, western blot) in h676 GSCs; assay type: cell-based, human; conditions: 24h at 1 µM
Protocol: In order to check whether the novel compounds act independently of this pathway, the present inventors treated the cells for 24h at 1 µM concentration and checked p-AKT activation.

[7] = test system: TRF1; assay: Phenotypic assay that measures TRF1 levels by immunofluorescence (validation of MEK/ERK, HSP90, tubulin pathways); assay type: cell-based

Compound	inhibition of TRF1 protein levels (screening hit) [3]	degree of TRF1 inhibition (TRF1 protein levels) [4]	other results
NC(Cc1ccccc1)c1csc(Nc2ncccn2)n1 (centres unmarked) [ETP-50946]			TRF1 foci [1]: effectively reduced; total TRF1 protein levels [2]: effectively reduced
CN1CC[C@H](c2c(O)cc(O)c3c(=O)cc(-c4ccccc4Cl)oc23)[C@H](O)C1 [Flavopiridol]	can inhibit TRF1 protein levels	medium TRF1 modulators	hits confirmed by confocal microscopy [3]: confirmed
C[C@@H](Oc1cc(-n2cnc3ccc(CN4CCN(C)CC4)cc32)sc1C(N)=O)c1ccccc1C(F)(F)F [GSK461364]	can inhibit TRF1 protein levels	no ability to downregulate TRF1	
COc1ccc(-c2ccc3c(N4CCOCC4)nc(N4C[C@@H](C)O[C@@H](C)C4)nc3n2)cc1CO [KU-0063794]	can inhibit TRF1 protein levels	medium TRF1 modulators	
O=C(Nc1ccc2[nH]nc(-c3ccncc3)c2c1)[C@@H]1CCN(CC(=O)N2CCN(c3ccc(-c4ncccn4)cc3)CC2)C1 [SCH772984]	can inhibit TRF1 protein levels	potent TRF1 modulators	
CS(=O)(=O)N1CCN(Cc2cc3c(N4CCOCC4)nc(-c4cnc(N)nc4)cn3n2)CC1 [ETP-47037]			TRF1 foci [1]: effectively reduced; total TRF1 protein levels [2]: effectively reduced
Cc1cnc2c(N3CCOCC3)nc(-c3ccc(NC(=O)Nc4ccc(C(=O)N5CCN(C)CC5)cc4)cc3)cn12 [ETP-47228]			TRF1 foci [1]: effectively reduced; total TRF1 protein levels [2]: effectively reduced
Cn1cnc2c(F)c(Nc3ccc(Br)cc3Cl)c(C(=O)NOCCO)cc21 [Selumetinib]			synergic effect with the PI3Ki (ETP-47037) [5]: significant synergic effect
COC1=C2C[C@@H](C)C[C@H](OC)[C@H](O)[C@@H](C)/C=C(\C)[C@H](OC(N)=O)[C@@H](OC)/C=C\C=C(/C)C(=O)NC(=CC1=O)C2=O [Geldanamycin]			dependence on p-AKT [6]: p-AKT dependent
CC(=O)O[C@@]12CO[C@@H]1C[C@H](O)[C@@]1(C)C(=O)[C@H](O)C3=C(C)[C@@H](OC(=O)[C@H](O)[C@@H](NC(=O)OC(C)(C)C)c4ccccc4)C[C@@](O)([C@@H](OC(=O)c4ccccc4)[C@H]21)C3(C)C [Docetaxel]	can inhibit TRF1 protein levels	medium TRF1 modulators	hits confirmed by confocal microscopy [3]: confirmed; modulation of TRF1 levels (tubulin agents) [7]: modulates more strongly
COc1cc(Nc2ncc3c(n2)-c2ccc(Cl)cc2C(c2c(F)cccc2OC)=NC3)ccc1C(=O)O [Alisertib]	can inhibit TRF1 protein levels	no ability to downregulate TRF1	
